{"source": "PubChem BioAssay AID686938 (Drosophila RNAi Screening Center, 2013)", "aim": "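Fly genes required for calcium entry once internal stores are emptied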 (primary screen)", "cell system": "Drosophila S2R+ cells", "reagents": "long dsRNA against Drosophila genes, about 0.25 µg dsRNA per well, roughly 10,000 cells", "time to read-out": "5 days of knock-down before the calcium assay", "conditions": "thapsigargin (SERCA pump blocker) to empty calcium stores; entry signal taken 4 min after adding it", "measurement": "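Per-well fluo-4 fluorescence in two replicates, unnormalised, measured in resting cells and 4 min after store depletion by the SERCA blocker thapsigargin; ratio of the two present in few wells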", "direction": "calcium entry signal: higher = stronger calcium signal after store depletion; resting calcium signal: higher = higher resting calcium signal", "hit rule": "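Hit if the duplicate-averaged plate z-score for entry over resting signal is under −3; wells with weak total dye signal (Fmax z < −2) or more than 5 off-targets removed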", "calls": "active = strongly reduced calcium entry; inactive = no strong reduction", "note": "The deposit covers about 23,000 reagents; this is an unselected part of those with a known target gene and a result. Of all reagents, 75 (0.33%) were called active. 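Raw plate signals without normalisation; calls rest on plate z-scores that were not deposited; ratio present for only 364 wells.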 Not given: the dose of the treatment."}
The opening 2 records, to show the layout:
{"predicted target": "Dpm1 (Dolichyl-phosphate mannosyltransferase subunit 1)", "dsRNA": "DRSC02018", "calcium entry signal, replicate 1 (fluorescence units)": 4.71e7, "calcium entry signal, replicate 2 (fluorescence units)": 4.44e7, "resting calcium signal, replicate 1 (fluorescence units)": 2.41e7, "resting calcium signal, replicate 2 (fluorescence units)": 2.02e7, "outcome": "inactive"}
{"predicted target": "Tis11 (Tis11 zinc finger protein)", "dsRNA": "DRSC20293", "calcium entry signal, replicate 1 (fluorescence units)": 3.93e7, "calcium entry signal, replicate 2 (fluorescence units)": 3.73e7, "resting calcium signal, replicate 1 (fluorescence units)": 1.97e7, "resting calcium signal, replicate 2 (fluorescence units)": 1.92e7, "outcome": "inactive"}

Main list, from the start:
{"predicted target": "Dpm1 (Dolichyl-phosphate mannosyltransferase subunit 1)", "dsRNA": "DRSC02018", "calcium entry signal, replicate 1 (fluorescence units)": 4.71e7, "calcium entry signal, replicate 2 (fluorescence units)": 4.44e7, "resting calcium signal, replicate 1 (fluorescence units)": 2.41e7, "resting calcium signal, replicate 2 (fluorescence units)": 2.02e7, "outcome": "inactive"}
{"predicted target": "Tis11 (Tis11 zinc finger protein)", "dsRNA": "DRSC20293", "calcium entry signal, replicate 1 (fluorescence units)": 3.93e7, "calcium entry signal, replicate 2 (fluorescence units)": 3.73e7, "resting calcium signal, replicate 1 (fluorescence units)": 1.97e7, "resting calcium signal, replicate 2 (fluorescence units)": 1.92e7, "outcome": "inactive"}
{"predicted target": "Tis11 (Tis11 zinc finger protein)", "dsRNA": "DRSC23110", "calcium entry signal, replicate 1 (fluorescence units)": 4.00e7, "calcium entry signal, replicate 2 (fluorescence units)": 4.19e7, "resting calcium signal, replicate 1 (fluorescence units)": 1.79e7, "resting calcium signal, replicate 2 (fluorescence units)": 1.88e7, "outcome": "inactive"}
{"predicted target": "gcm (glial cells missing)", "dsRNA": "DRSC03536", "calcium entry signal, replicate 1 (fluorescence units)": 3.60e7, "calcium entry signal, replicate 2 (fluorescence units)": 6.90e7, "resting calcium signal, replicate 1 (fluorescence units)": 1.87e7, "resting calcium signal, replicate 2 (fluorescence units)": 3.04e7, "outcome": "inactive"}
{"predicted target": "h-cup (heineken-cup)", "dsRNA": "DRSC15973", "calcium entry signal, replicate 1 (fluorescence units)": 3.50e7, "calcium entry signal, replicate 2 (fluorescence units)": 4.17e7, "resting calcium signal, replicate 1 (fluorescence units)": 1.53e7, "resting calcium signal, replicate 2 (fluorescence units)": 1.83e7, "outcome": "inactive"}
{"predicted target": "CG9356", "dsRNA": "DRSC16476", "calcium entry signal, replicate 1 (fluorescence units)": 3.74e7, "calcium entry signal, replicate 2 (fluorescence units)": 3.88e7, "resting calcium signal, replicate 1 (fluorescence units)": 1.80e7, "resting calcium signal, replicate 2 (fluorescence units)": 1.81e7, "outcome": "inactive"}
{"predicted target": "CAP", "dsRNA": "DRSC05215", "calcium entry signal, replicate 1 (fluorescence units)": 2.41e7, "calcium entry signal, replicate 2 (fluorescence units)": 3.42e7, "resting calcium signal, replicate 1 (fluorescence units)": 1.79e7, "resting calcium signal, replicate 2 (fluorescence units)": 1.30e7, "outcome": "inactive"}
{"predicted target": "CAP", "dsRNA": "DRSC06743", "calcium entry signal, replicate 1 (fluorescence units)": 4.62e7, "calcium entry signal, replicate 2 (fluorescence units)": 4.30e7, "resting calcium signal, replicate 1 (fluorescence units)": 1.85e7, "resting calcium signal, replicate 2 (fluorescence units)": 1.83e7, "outcome": "inactive"}
{"predicted target": "CAP", "dsRNA": "DRSC06744", "calcium entry signal, replicate 1 (fluorescence units)": 3.70e7, "calcium entry signal, replicate 2 (fluorescence units)": 3.11e7, "resting calcium signal, replicate 1 (fluorescence units)": 1.66e7, "resting calcium signal, replicate 2 (fluorescence units)": 1.38e7, "outcome": "inactive"}
{"predicted target": "CAP", "dsRNA": "DRSC06745", "calcium entry signal, replicate 1 (fluorescence units)": 3.42e7, "calcium entry signal, replicate 2 (fluorescence units)": 3.27e7, "resting calcium signal, replicate 1 (fluorescence units)": 1.54e7, "resting calcium signal, replicate 2 (fluorescence units)": 1.39e7, "outcome": "inactive"}
{"predicted target": "CAP", "dsRNA": "DRSC06846", "calcium entry signal, replicate 1 (fluorescence units)": 3.35e7, "calcium entry signal, replicate 2 (fluorescence units)": 3.23e7, "resting calcium signal, replicate 1 (fluorescence units)": 1.47e7, "resting calcium signal, replicate 2 (fluorescence units)": 1.26e7, "outcome": "inactive"}
{"predicted target": "Asx (Additional sex combs)", "dsRNA": "DRSC05924", "calcium entry signal, replicate 1 (fluorescence units)": 2.19e7, "calcium entry signal, replicate 2 (fluorescence units)": 4.05e7, "resting calcium signal, replicate 1 (fluorescence units)": 1.16e7, "resting calcium signal, replicate 2 (fluorescence units)": 1.83e7, "outcome": "inactive"}
